# Measured data: PubChem BioAssay AID493246 (Drosophila RNAi Screening Center, 2011)
# Assay: 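Genes fly cells need to grow and stay alive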 (primary screen)
# Cells: Drosophila Kc and S2R+ cells
# Knock-down reagent: long dsRNA against Drosophila genes
# Read-out: 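Cell number per well after knock-down, printed as raw plate values; calls were based on per-plate z-scores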
# Reading the numbers: Kc cell number and S2R+ cell number: higher = more cells remaining
# Active means: 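Active when the per-plate z-score of cell number is 3 or more in the direction of fewer cells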
# The deposit covers about 21,000 reagents; below is a random part of those that have a named target and a result. Of all reagents, 429 (2%) got an active call. 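Values are raw and not normalised between plates; calls rest on per-plate z-scores that were not deposited.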 Entries without a mark were called inactive. Reagents against one gene are numbered here. Not stated in the record: the amount of reagent, the time to read-out.
target,dsRNA no.,"Kc cell number, rep 1","Kc cell number, rep 2","S2R+ cell number, rep 1","S2R+ cell number, rep 2"
ZnT49B (GeneID 36393),1,1.62e6,1.62e6,1.19e6,1.32e6
Fcp3C (GeneID 31294),1,1.50e6,1.51e6,1.07e6,1.22e6
CG31055 (GeneID 318574),1,1.04e6,1.41e6,1.04e6,1.05e6
Dus1 (GeneID 33190),1,1.64e6,1.59e6,1.14e6,1.23e6
gammaSnap2 (GeneID 41239),1,1.50e6,1.54e6,1.35e6,1.47e6
alrm (GeneID 43074),1,1.70e6,1.85e6,1.06e6,1.17e6
QC (GeneID 38663),1,1.42e6,1.44e6,1.16e6,1.15e6
Glo1 (GeneID 35656),1,1.59e6,1.60e6,1.31e6,1.45e6
glec (GeneID 42571),1,1.25e6,1.37e6,1.10e6,1.14e6
MED15 (GeneID 33223),1,1.17e6,1.25e6,6.68e5,8.44e5
wapl (GeneID 31187),1,5.20e5,,7.55e5,
CG12883 (GeneID 43326),1,1.42e6,1.43e6,9.62e5,1.12e6
ATP8A (GeneID 36488),1,1.42e6,1.41e6,9.84e5,1.14e6
ATP8A (GeneID 36488),2,1.30e6,1.43e6,1.06e6,9.92e5
ATP8A (GeneID 36488),3,1.47e6,1.49e6,1.21e6,1.38e6

A run of entries from the list above, for reference:
target,dsRNA no.,"Kc cell number, rep 1","Kc cell number, rep 2","S2R+ cell number, rep 1","S2R+ cell number, rep 2"
MED15 (GeneID 33223),1,1.17e6,1.25e6,6.68e5,8.44e5
wapl (GeneID 31187),1,5.20e5,,7.55e5,
CG12883 (GeneID 43326),1,1.42e6,1.43e6,9.62e5,1.12e6
ATP8A (GeneID 36488),1,1.42e6,1.41e6,9.84e5,1.14e6
ATP8A (GeneID 36488),2,1.30e6,1.43e6,1.06e6,9.92e5

More entries:
target,dsRNA no.,"Kc cell number, rep 1","Kc cell number, rep 2","S2R+ cell number, rep 1","S2R+ cell number, rep 2"
ben (GeneID 32358),1,5.06e5,,8.67e5,
ben (GeneID 32358),2,1.51e6,1.59e6,1.11e6,1.22e6
CG32053 (GeneID 39178),1,1.25e6,1.34e6,1.20e6,9.87e5
CG14419 (GeneID 31276),1,1.61e6,1.57e6,1.05e6,1.17e6
GckIII (GeneID 42064),1,1.19e6,1.17e6,9.33e5,1.04e6
scf (GeneID 38145),1,1.10e6,1.31e6,1.00e6,1.26e6
CG17108 (GeneID 34471),1,1.55e6,1.57e6,1.16e6,1.29e6
Not10 (GeneID 41552),1,1.57e6,1.60e6,1.23e6,1.33e6
Gs1 (GeneID 33172),1,1.41e6,1.40e6,8.59e5,7.62e5
Mst77F (GeneID 40304),1,1.30e6,1.43e6,1.30e6,1.32e6
Reck (GeneID 39629),1,1.64e6,1.68e6,1.21e6,1.29e6
Reck (GeneID 39629),2,1.40e6,1.56e6,1.31e6,1.50e6
HisRS (GeneID 32841),1,1.60e6,1.54e6,1.15e6,1.29e6
Klp68D (GeneID 39332),1,1.32e6,1.39e6,1.24e6,1.22e6
CG31810 (GeneID 318955),1,1.45e6,1.55e6,9.26e5,1.10e6
CG17359 (GeneID 39549),1,1.66e6,1.59e6,1.18e6,1.31e6
Tob (GeneID 32574),1,5.63e5,,1.01e6,
DopEcR (GeneID 38539),1,1.38e6,1.37e6,1.27e6,1.20e6
CG2186 (GeneID 32017),1,5.88e5,,8.17e5,
CAH5 (GeneID 50102),1,1.48e6,1.56e6,1.12e6,1.24e6
CG9284 (retired record) (GeneID 50130),1,5.04e5,,8.31e5,
CG9284 (retired record) (GeneID 50130),2,1.46e6,1.48e6,1.00e6,1.05e6
AP-1-2beta (GeneID 32987),1,1.51e6,1.51e6,1.00e6,1.16e6
CG14300 (GeneID 3346166),1,1.18e6,1.29e6,1.02e6,1.16e6
Gfat1 (GeneID 3354921),1,1.71e6,1.77e6,1.12e6,1.27e6
